From PubChem BioAssay AID2685 (National Center for Advancing Translational Sciences (NCATS), 2010)
Screen size: about 320,000 compounds; about 2,100 (0.66%) were called active. Inconclusive results, whose numbers are uncertain, are shown with a selection of clear calls. The call rests on the fitted dose curve; in most records, active means well fitted inhibition curve with a large enough effect in the signal ratio, with a control signal flat (not every such curve was filed as active); inconclusive means small, poorly fitted or top-dose-only effect, or effect the other way, or a change in a side signal; inactive means flat fitted curve, though single readings scatter; the % refers to the signal ratio. Where the call is inconclusive, the potency comes from a doubtful curve fit.
On the % scale 0 is the no-effect control and ±100 the full control effect; potency means the concentration at half of the fitted maximal effect.

Assay: qHTS Assay for Lipid Storage Modulators in Drosophila S3 Cells
Details: BODIPY lipid droplet fluorescence, 18-24 h, cells fed with added oleic acid; lipid storage change, negative = inhibition: at 46.1 µM (top of the series) unless noted
Procedure, shortened: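 Laser-scanning cytometry quantifies lipid droplet accumulation (500–530 nm total intensity; droplet/cell object ratio) in oleic acid-fed (400 uM added) Drosophila S3 cells treated with a concentration series. 20 uM Triacsin C defined 100% inhibition.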
For `CCOc1ccccc1NC(=O)Nc1ccc2c(c1)CCC2`, the Potency was inconclusive: 13 µM [falling, partial curve, poor fit]. For `CNC(=O)Nc1nnc(C(C)(C)C)s1`, the lipid storage change, negative = inhibition was inconclusive: 24.4%. For `COc1ccc(S(=O)(=O)NC2CCCC2)c(OC)c1`, the Potency was inconclusive: 6.51 µM [activator, single point]. For `COc1ccc(-c2nc(CSCC(=O)NC3CCCc4ccccc43)c(C)o2)cc1OC` (stereo not drawn), the lipid storage change, negative = inhibition was inconclusive: -2.44%. In the case of `Cc1cccc(Oc2ncnc3onc(C)c23)c1`, the lipid storage change, negative = inhibition is reported as inconclusive: 23.5%. For `Cc1nn(C)c(C)c1NC(=O)c1ccnn1C`, the lipid storage change, negative = inhibition was inconclusive: -24.6%. For `CCSC1=NN2CCS(=O)(=O)N=C2S1`, the lipid storage change, negative = inhibition was inconclusive: 67.9%. For `O=C(CNC(=O)c1ccccc1C(F)(F)F)N/N=C/c1cccs1`, the lipid storage change, negative = inhibition was inconclusive: 26.8%. With `Cc1nn(-c2ccccc2)nc1C(=O)c1c(C)[nH]n(-c2ccccc2)c1=O` the lipid storage change, negative = inhibition was inconclusive: 8.82%. In the case of `COc1ccc(C(c2nnnn2Cc2cccs2)N2CCN(c3ccccc3F)CC2)cc1` (stereo not drawn), the lipid storage change, negative = inhibition is reported as inconclusive: 1.24%. For `COc1ccc(-c2noc(C3CCCN(C(=O)c4c(F)cccc4F)C3)n2)cc1OC` (stereo not drawn), the lipid storage change, negative = inhibition was inconclusive: 18.3%. With `CC(CCn1cccn1)NC(=O)c1cc(COc2ccc(F)cc2Cl)on1` (stereo not drawn) the lipid storage change, negative = inhibition was inconclusive: -22.8%. With `O=C(CCc1ccccc1)Nc1ccncc1` the Potency was inconclusive: 29.1 µM [activator, single point]. In the case of `CCCc1cc(=O)oc2cc(C)cc(OCC(=O)Nc3cccnc3)c12`, the lipid storage change, negative = inhibition is reported as inconclusive: 45.4%. For `Cc1ccc(C)c(S(=O)(=O)N2CCN(C(=O)C(C)Sc3ccccc3)CC2)c1` (stereo not drawn), the lipid storage change, negative = inhibition was inconclusive: -34.9%. With `Brc1ccc(-c2ccccc2)cc1` the lipid storage change, negative = inhibition was inconclusive: -10.7%. In the case of `CCOC(=O)c1sc(NC(=O)CNC(=O)Cn2cnc3sc(C)c(C)c3c2=O)nc1C`, the lipid storage change, negative = inhibition is reported as inconclusive: 53.6%. With `Cc1ccc(Cc2c(C)[nH]c(=S)[nH]c2=O)cc1` the lipid storage change, negative = inhibition was inconclusive: 11.3%. In the case of `COc1cc(OC)cc(C(=O)NN(CCC#N)C2=NS(=O)(=O)c3ccccc32)c1`, the Potency is reported as inconclusive: 29.1 µM [activator, single point]. For `Cc1ccc(-c2nnc(Nc3ccc4c(c3)OCO4)c3ccccc23)cc1S(=O)(=O)NCCO`, the Potency was inconclusive: 29.1 µM [falling, single point]. In the case of `CCOc1ccc(C(=O)NC2CC(=O)N(c3ccc4c(c3)OCCO4)C2)cc1` (stereo not drawn), the lipid storage change, negative = inhibition is reported as inconclusive: 21.6%. In the case of `O=C(c1cccs1)c1cn(CC(=O)N2CCc3ccccc3C2)c2ccccc12`, the lipid storage change, negative = inhibition is reported as inconclusive: 40.9%. In the case of `COc1ccc(CNC(=O)c2csc(Cc3ccc(OC)cc3)n2)cc1`, the lipid storage change, negative = inhibition is reported as inconclusive: 13.5%. For `COCCn1c(=S)[nH]c2cc(OC)c(OC)cc2c1=O`, the lipid storage change, negative = inhibition was inconclusive: 8.93%. For `CCOC(=O)c1c(NC(=O)CC)sc2c1CCN(Cc1ccccc1)C2`, the Potency was inconclusive: 7.31 µM [falling, partial curve, poor fit]. In the case of `CC(C)CC(=O)Nc1nnn(C)n1`, the lipid storage change, negative = inhibition is reported as inconclusive: -150%. For `C/C(=N\NS(=O)(=O)c1ccc([N+](=O)[O-])cc1)c1ccc2c(c1)OCO2`, the lipid storage change, negative = inhibition was inconclusive: -44%. With `Cc1cccc(N(CC(=O)N2CCOCC2)S(C)(=O)=O)c1` the lipid storage change, negative = inhibition was inconclusive: 11.4%. For `CCN(CC)C(=O)c1ccc(N)cc1`, the lipid storage change, negative = inhibition was inconclusive: -7.74%. For `Cc1ccc(S(=O)(=O)N2CCN(c3ccnc4cc(Cl)ccc34)CC2)cc1`, the Potency was inconclusive: 32.6 µM [cytotoxic, single point]. With `CCOc1ccc(C(=O)NCC(=O)Nc2ccc(N3CCOCC3)cc2)cc1OCC` the lipid storage change, negative = inhibition was inconclusive: 53.5%. For `COc1ccc(C(=O)Oc2cc(C(=S)N3CCOCC3)ccc2OC)cc1`, the Potency was inconclusive: 29.1 µM [activator, single point]. With `O=C(CCCCC(=O)Nc1ccccc1Cl)Nc1ccccc1Cl` the lipid storage change, negative = inhibition was inconclusive: 15%. In the case of `CN(C(=O)/C=C/c1ccc([N+](=O)[O-])s1)c1ccccc1`, the lipid storage change, negative = inhibition is reported as “inactive”. With `O=C(CN1CCN(Cc2ccccc2)CC1)N/N=C/C=C/c1ccco1` the lipid storage change, negative = inhibition was inconclusive: 14%. In the case of `CSc1ccccc1OCc1cc(C(=O)N2CCC[C@H]2C(N)=O)no1`, the lipid storage change, negative = inhibition is reported as inconclusive: 17.4%. With `CN(C)NC1=CC(=[N+]2CCCC2)CC(C)(C)C1` the Potency was inconclusive: 0.259 µM [falling, full curve, poor fit]. For `CC(C)C(=O)Nc1cccc(C(=O)Nc2nccs2)c1`, the lipid storage change, negative = inhibition was inconclusive: 17%. For `CN(C)C(=O)c1c2c(nc3ccccc13)-c1ccccc1CC2`, the lipid storage change, negative = inhibition was inconclusive: -30%. For `CC(Oc1cc2oc(=O)c3c(c2cc1Cl)CCC3)C(=O)NC1CC(C)(C)NC(C)(C)C1` (stereo not drawn), the Potency was inconclusive: 20.6 µM [activator, partial curve]. In the case of `Cc1cccc(Cn2ccc(N)n2)c1`, the lipid storage change, negative = inhibition is reported as inconclusive: 24%. In the case of `O=C(O)c1ccc(COc2ccccc2/C=C2\NC(=O)N(Cc3ccccc3F)C2=O)cc1`, the lipid storage change, negative = inhibition is reported as inconclusive: 7.82%. With `COC(=O)c1ccccc1NC(=O)CNc1ccc(F)c(S(=O)(=O)N2CCOCC2)c1` the Potency was active: 3.26 µM. With `COCCN(C(=O)COC(=O)CCc1c[nH]c2ccccc12)c1c(N)n(Cc2ccccc2)c(=O)[nH]c1=O` the lipid storage change, negative = inhibition was inconclusive: 37.9%. With `O=[N+]([O-])c1ccccc1/C=C/c1ccc2ccccc2n1` the Potency was inconclusive: 29.1 µM [falling, single point]. For `Cc1cccc(C(C(=O)NCc2ccc(F)cc2)N(C(=O)c2csnn2)C2CC2)c1` (stereo not drawn), the Potency was inconclusive: 9.2 µM [activator, single point]. For `O=C(Nc1ccc2c(c1)OCO2)C1CC1`, the Potency was inconclusive: 2.91 µM [activator, full curve]. With `O=C(NC(=S)Nc1ccc(N2CCOCC2)cc1)c1cccc(Cl)c1Cl` the Potency was inconclusive: 0.326 µM [activator, partial curve, poor fit]. In the case of `COC(=O)c1ccc(CSc2nnc3ccccn23)o1`, the lipid storage change, negative = inhibition is reported as inconclusive: -18.3%. With `CC(C)NC(=O)Cn1c(=O)cnc2ccccc21` the Potency was inconclusive: 14.6 µM [falling, partial curve]. In the case of `CCN(CC)c1ccc(/C=C(\C#N)C(=O)c2ccc(Br)cc2)cc1`, the Potency is reported as active: 25.9 µM. With `COc1cccc(C(=O)NCCS(=O)(=O)N(C)C2CCCCC2)c1` the lipid storage change, negative = inhibition was inconclusive: -2.81%. In the case of `CC(=O)NCCOC(=O)Nc1ccncc1`, the Potency is reported as active: 18.4 µM. For `c1cc(-c2nc3cc(Cc4ccc5oc(-c6ccncc6)nc5c4)ccc3o2)ccn1`, the Potency was inconclusive: 2.06 µM [activator, full curve, poor fit]. In the case of `N#Cc1ccsc1NC(=O)C1CCN(S(=O)(=O)c2cccs2)CC1`, the lipid storage change, negative = inhibition is reported as “inconclusive”. In the case of `O=C1CSC(c2ccc(F)cc2)N1c1nc2ccccc2s1` (stereo not drawn), the Potency is reported as inconclusive: 16.4 µM [activator, partial curve]. With `CC(=O)Nc1ccc(S(=O)(=O)N(C)CC(=O)N/N=C/c2cccs2)cc1` the lipid storage change, negative = inhibition was inconclusive: 20.5%. In the case of `CN(C)S(=O)(=O)c1ccc(C(=O)Nc2ccc(Cl)cc2)cc1`, the Potency is reported as inconclusive: 6.51 µM [activator, single point]. In the case of `Cc1noc(C)c1S(=O)(=O)N(CC(=O)N1CCn2c1nc1ccccc12)c1ccc(C(C)C)cc1`, the lipid storage change, negative = inhibition is reported as inconclusive: -51.5%. In the case of `Cc1[nH]n(-c2cccc3ccccc23)c(=O)c1/C=N/NC(=O)c1cccc([N+](=O)[O-])c1`, the lipid storage change, negative = inhibition is reported as inconclusive: 25.9%. In the case of `O=C(COc1ccc(Cl)cc1)Nc1ccccc1C(=O)NCc1cccnc1`, the Potency is reported as inconclusive: 16.4 µM [falling, partial curve, poor fit]. For `CC(=O)NS(=O)(=O)c1ccc(NS(=O)(=O)c2ccc(F)cc2)cc1`, the lipid storage change, negative = inhibition was inconclusive: -0.885%. In the case of `CC12CCC(C(=O)N3CCc4ccccc43)(CC1=O)C2(C)C` (stereo not drawn), the lipid storage change, negative = inhibition is reported as inconclusive: -4.92%. In the case of `CC(C)NC(=O)CN(Cc1ccc(F)cc1)C(=O)CCC(=O)Nc1ccccn1`, the lipid storage change, negative = inhibition is reported as inconclusive: -7.93%. For `O=C(Cn1c(=O)oc2cc(S(=O)(=O)N3CCCC3)ccc21)N1CCN(c2ccccn2)CC1`, the lipid storage change, negative = inhibition was inconclusive: 29.7%. With `CCC(CC)c1nnc(NC(=O)C2CC(=O)N(CCc3ccc(OC)c(OC)c3)C2)s1` (stereo not drawn) the lipid storage change, negative = inhibition was “inconclusive”. With `Cc1ccc(C(=O)Nc2cccc(C(F)(F)F)c2)cc1NC(=O)c1nccn1C` the lipid storage change, negative = inhibition was inconclusive: 10.5%. In the case of `COc1ccc(N2CCN(C(=O)CSc3nnc(C)c(=O)[nH]3)CC2)cc1`, the Potency is reported as active: 29.1 µM. In the case of `COc1ccc(N2CCN(C(=O)CCC(=O)N3CCOc4ccc(C)cc43)CC2)cc1`, the lipid storage change, negative = inhibition is reported as inconclusive: 1.65%. For `CN(CCCNC(=O)c1ccc(CS(=O)c2ccc(Br)cc2)o1)Cc1ccccc1` (stereo not drawn), the Potency was inconclusive: 29.1 µM [falling, single point]. For `Cc1ccc(SCc2cc(=O)[nH]c(N3CCN(Cc4ccc5c(c4)OCO5)CC3)n2)cc1`, the Potency was inconclusive: 3.66 µM [falling, full curve]. For `Cc1ccc(-c2nc(N3CCN(C)CC3)c3ccccc3n2)cc1`, the Potency was inconclusive: 6.51 µM [activator, single point]. For `COc1ccc2ccccc2c1/C=N/NC(=O)c1cccc(Br)c1`, the lipid storage change, negative = inhibition was inconclusive: 2.02%. For `CN1CCN(c2nnc(-c3ccc(F)cc3)c3ccccc23)CC1`, the lipid storage change, negative = inhibition was inconclusive: 91%. For `NC(=O)C1CCN(CC(=O)Nc2cc(Cl)ccc2Oc2ccccc2)CC1`, the Potency was inconclusive: 2.59 µM [falling, single point]. For `CCOC(=O)c1c(NC(=O)CSc2n[nH]c(N)n2)sc(CC)c1C`, the lipid storage change, negative = inhibition was inconclusive: 22.6%. In the case of `CCn1c(SCC(=O)N2CCCc3ccccc32)nnc1-c1cccs1`, the Potency is reported as inconclusive: 2.06 µM [activator, partial curve]. For `CC1(C)Cc2c(cnn2-c2cccc(F)c2)C(NC(=O)CSc2ccccn2)C1` (stereo not drawn), the Potency was inconclusive: 0.82 µM [falling, single point].
